Results deposited as PubChem BioAssay AID1224830 (NIAID, 2016)

Purpose: 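Genes whose knock-down alters the TNF-alpha reporter response to LPS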 (primary screen)
Cell system: human THP-1 monocytic leukaemia cells, TNF dual-luciferase reporter clone, PMA-differentiated to macrophage-like cells
Reagents: siRNA pool against human genes, 50 nM
Timing: LPS for 4 h, given about 3 days after siRNA transfection
Conditions: bacterial LPS (TLR4 ligand), 10 ng/ml
Measurement: 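Ratio of firefly to renilla light, scaled to the plate median and expressed as a robust z-score per replicate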
Reading the numbers: TNF reporter robust z-score: higher = stronger TNF reporter response to LPS
Call rule: 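Each well counts as active if its z-score is over 2.8 or under -1.5; controls are left without a call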
In all, the deposit lists about 18,000 reagents; shown is a part drawn at random. About 2,900 of them (16%) count as active. 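Calls are made per well; low scores hint the gene aids the LPS response, high scores that it dampens it.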 A number with no mark means an inactive call. The numbers tell different reagents against one gene apart. Repeated entries: four replicate wells of each siRNA pool. Reagent sequences are not shown.

TNF reporter robust z-score, by target and reagent
KDM5D: #1 1.68; #1 -0.67; #1 -1.03; #1 -0.89
CYB561D1: #1 1.38; #1 -0.05; #1 0.49; #1 1.25
YIPF5: #1 1.12; #1 2.98 (active); #1 0.85; #1 0.24
M1AP: #1 -1.05; #1 -1.37; #1 -1.26; #1 -1.12
ASIC2: #1 -1.51 (active); #1 -1.09; #1 -0.71; #1 -0.46
NAAA: #1 -0.98; #1 1.16; #1 0.88; #1 0.03
TMPO: #1 0.05; #1 1.25; #1 -0.02; #1 0.79
MKRN1: #1 -0.87; #1 1.02; #1 0.95; #1 -0.47
FCRL5: #1 3.56 (active); #1 -0.48; #1 -1.17; #1 0.96
KLK4: #1 1.96; #1 1.49; #1 2.18; #1 0.57
RIN2: #1 -0.59; #1 -0.11; #1 0.1; #1 -0.43
METAP1: #1 -0.11; #1 0.12; #1 0.72; #1 1.78
TMPRSS12: #1 1.95; #1 1.78; #1 2.17; #1 2.66
PRLHR: #1 -0.92; #1 -0.02; #1 -0.06; #1 -0.24
SPIN2B: #1 -0.28; #1 -0.2; #1 -0.9; #1 -0.43
SNX29: #1 0.01; #1 -0.78; #1 -0.09; #1 0.84; #2 -0.5; #2 -0.44; #2 0.1; #2 -0.71
MTDH: #1 -0.95; #1 2.57; #1 2.27; #1 -0.29

16 consecutive reagents already listed:
TNF reporter robust z-score, by target and reagent
KLK4: #1 0.57
RIN2: #1 -0.59; #1 -0.11; #1 0.1; #1 -0.43
METAP1: #1 -0.11; #1 0.12; #1 0.72; #1 1.78
TMPRSS12: #1 1.95; #1 1.78; #1 2.17; #1 2.66
PRLHR: #1 -0.92; #1 -0.02; #1 -0.06

The list goes on:
TNF reporter robust z-score, by target and reagent
CSF3R: #1 -0.05; #1 1.15; #1 1.3; #1 0.26
ELP6: #1 -0.03; #1 0.73; #1 -0.36; #1 0.66
BLZF1: #1 0.63; #1 -0.6; #1 1.27; #1 1.15
DNASE1L1: #1 2.41; #1 0.61; #1 2.36; #1 2.23
OAS2: #1 1.68; #1 2.69; #1 5.38 (active); #1 0.39
RTP3: #1 -0.1; #1 0.5; #1 -0.08; #1 0.3
FBXO41: #1 0.35; #1 6.15 (active); #1 0.73; #1 4.47 (active)
STXBP2: #1 0.77; #1 0.69; #1 0.1; #1 2.27
ARL4C: #1 -1.28; #1 0.03; #1 -1.16; #1 0.31
THSD4: #1 -0.42; #1 -0.35; #1 0.13; #1 1
